# Measured values: the supplement of paper PMC12819154, “High-throughput peptide-centric local stability assay extends protein–ligand identification to membrane proteins, tissues and bacteria” (Nature Structural & Molecular Biology, 2025)
# Amino acid sequences for entries named in this document (tags omitted). A change or cut given only in a name is not applied to a line headed by its entry.
# UniProt Q9P2E5: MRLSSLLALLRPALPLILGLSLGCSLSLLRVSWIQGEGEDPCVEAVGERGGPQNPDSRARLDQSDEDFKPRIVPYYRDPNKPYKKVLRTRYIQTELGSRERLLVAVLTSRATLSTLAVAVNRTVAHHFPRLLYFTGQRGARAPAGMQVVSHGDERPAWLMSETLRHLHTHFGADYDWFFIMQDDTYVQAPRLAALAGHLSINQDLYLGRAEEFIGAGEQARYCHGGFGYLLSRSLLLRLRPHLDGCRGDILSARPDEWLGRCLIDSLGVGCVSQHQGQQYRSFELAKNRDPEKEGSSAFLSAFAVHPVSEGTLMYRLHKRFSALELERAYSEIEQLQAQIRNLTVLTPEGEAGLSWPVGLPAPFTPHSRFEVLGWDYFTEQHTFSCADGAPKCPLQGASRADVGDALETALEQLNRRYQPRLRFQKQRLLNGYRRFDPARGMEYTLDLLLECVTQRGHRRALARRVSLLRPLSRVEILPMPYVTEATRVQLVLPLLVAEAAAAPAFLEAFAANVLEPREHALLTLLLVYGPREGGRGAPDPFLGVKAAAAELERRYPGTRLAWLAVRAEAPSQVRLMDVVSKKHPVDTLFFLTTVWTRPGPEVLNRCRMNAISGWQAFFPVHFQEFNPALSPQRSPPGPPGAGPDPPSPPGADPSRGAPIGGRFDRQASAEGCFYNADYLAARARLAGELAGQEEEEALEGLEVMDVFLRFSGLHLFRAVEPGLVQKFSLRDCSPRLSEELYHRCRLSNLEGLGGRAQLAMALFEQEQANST
# UniProt Q9P2Y5: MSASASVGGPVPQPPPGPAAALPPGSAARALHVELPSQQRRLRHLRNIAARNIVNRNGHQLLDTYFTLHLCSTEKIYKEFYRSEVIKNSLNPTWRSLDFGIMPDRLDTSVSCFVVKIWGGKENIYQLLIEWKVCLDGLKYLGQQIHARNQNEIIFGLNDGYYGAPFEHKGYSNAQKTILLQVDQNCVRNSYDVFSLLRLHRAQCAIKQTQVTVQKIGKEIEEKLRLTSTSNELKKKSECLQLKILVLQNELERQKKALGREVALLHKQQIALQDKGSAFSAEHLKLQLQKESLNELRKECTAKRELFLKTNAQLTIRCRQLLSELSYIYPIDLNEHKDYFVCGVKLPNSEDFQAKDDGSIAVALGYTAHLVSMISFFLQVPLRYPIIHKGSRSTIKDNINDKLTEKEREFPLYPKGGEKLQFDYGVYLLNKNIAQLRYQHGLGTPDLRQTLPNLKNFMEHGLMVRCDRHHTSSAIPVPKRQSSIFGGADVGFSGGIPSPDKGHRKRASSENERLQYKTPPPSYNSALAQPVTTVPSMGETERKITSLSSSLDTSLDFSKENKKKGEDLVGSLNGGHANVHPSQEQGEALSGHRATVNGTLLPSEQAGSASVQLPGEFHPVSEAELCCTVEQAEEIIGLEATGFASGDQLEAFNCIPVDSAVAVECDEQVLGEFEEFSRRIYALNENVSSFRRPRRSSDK
# UniProt Q9NZB2: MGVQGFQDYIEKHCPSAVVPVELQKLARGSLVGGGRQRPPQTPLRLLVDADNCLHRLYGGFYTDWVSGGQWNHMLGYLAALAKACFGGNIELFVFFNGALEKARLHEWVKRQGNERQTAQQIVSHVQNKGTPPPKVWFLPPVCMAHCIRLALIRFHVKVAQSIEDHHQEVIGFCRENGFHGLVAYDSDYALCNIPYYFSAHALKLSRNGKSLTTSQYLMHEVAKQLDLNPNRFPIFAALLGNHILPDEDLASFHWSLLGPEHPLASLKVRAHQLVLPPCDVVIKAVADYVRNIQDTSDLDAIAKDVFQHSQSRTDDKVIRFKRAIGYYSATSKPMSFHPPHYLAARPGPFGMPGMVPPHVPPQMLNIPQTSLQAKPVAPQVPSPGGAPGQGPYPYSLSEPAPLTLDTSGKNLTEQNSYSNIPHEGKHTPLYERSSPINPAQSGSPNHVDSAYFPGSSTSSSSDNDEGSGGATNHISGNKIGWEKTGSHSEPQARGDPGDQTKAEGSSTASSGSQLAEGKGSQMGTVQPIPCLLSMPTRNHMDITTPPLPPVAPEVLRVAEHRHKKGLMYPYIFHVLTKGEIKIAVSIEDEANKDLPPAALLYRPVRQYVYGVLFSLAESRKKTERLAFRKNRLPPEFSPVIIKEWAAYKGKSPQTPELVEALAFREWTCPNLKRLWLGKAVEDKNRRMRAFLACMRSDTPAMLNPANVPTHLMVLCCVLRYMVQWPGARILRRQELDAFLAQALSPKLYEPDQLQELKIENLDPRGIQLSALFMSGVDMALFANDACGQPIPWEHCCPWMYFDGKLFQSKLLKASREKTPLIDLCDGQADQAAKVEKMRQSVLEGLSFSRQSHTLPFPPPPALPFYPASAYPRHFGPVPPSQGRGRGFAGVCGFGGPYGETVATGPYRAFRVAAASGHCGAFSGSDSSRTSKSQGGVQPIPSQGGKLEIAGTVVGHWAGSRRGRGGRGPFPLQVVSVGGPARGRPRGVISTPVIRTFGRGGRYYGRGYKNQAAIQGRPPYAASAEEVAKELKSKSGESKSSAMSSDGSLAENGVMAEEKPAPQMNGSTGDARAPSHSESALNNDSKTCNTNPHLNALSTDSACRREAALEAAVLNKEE
# UniProt Q9UDW3: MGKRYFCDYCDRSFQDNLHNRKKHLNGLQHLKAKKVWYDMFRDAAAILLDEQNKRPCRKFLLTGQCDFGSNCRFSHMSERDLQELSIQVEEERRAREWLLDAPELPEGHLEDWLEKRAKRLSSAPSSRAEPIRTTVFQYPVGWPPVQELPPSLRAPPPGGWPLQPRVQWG
# UniProt Q9UBR2: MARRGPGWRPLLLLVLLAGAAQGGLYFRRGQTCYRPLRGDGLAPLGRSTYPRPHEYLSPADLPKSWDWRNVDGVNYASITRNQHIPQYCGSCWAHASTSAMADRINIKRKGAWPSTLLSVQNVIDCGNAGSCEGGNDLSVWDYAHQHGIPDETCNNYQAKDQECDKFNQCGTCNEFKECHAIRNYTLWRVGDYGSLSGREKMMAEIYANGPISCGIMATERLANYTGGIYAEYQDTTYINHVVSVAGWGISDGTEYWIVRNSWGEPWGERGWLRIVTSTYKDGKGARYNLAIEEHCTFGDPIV
# UniProt Q9UBI1, whole entry: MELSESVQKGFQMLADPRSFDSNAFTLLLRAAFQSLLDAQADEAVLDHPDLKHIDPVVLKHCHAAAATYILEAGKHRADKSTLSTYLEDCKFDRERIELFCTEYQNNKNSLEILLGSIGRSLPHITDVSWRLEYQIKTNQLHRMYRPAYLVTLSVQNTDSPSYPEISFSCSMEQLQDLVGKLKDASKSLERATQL
# UniProt Q9P0U4, whole entry: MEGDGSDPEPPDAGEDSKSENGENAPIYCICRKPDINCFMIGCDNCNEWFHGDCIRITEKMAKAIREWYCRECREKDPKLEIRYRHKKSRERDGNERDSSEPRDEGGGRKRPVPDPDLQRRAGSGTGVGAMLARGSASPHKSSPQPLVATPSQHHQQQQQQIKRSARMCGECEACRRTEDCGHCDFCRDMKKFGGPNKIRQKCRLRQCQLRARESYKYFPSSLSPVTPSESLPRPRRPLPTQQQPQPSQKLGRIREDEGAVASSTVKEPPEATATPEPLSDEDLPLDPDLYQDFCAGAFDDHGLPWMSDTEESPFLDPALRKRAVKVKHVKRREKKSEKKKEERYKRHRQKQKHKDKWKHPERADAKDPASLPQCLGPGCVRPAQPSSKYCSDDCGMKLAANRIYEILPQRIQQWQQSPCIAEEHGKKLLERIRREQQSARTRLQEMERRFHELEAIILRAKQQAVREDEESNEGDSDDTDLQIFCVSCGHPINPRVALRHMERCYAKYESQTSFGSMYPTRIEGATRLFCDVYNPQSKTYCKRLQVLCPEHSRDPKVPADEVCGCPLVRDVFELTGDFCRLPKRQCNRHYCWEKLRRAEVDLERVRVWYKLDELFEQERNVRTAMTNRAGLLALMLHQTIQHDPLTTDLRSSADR
# UniProt Q9UBS4: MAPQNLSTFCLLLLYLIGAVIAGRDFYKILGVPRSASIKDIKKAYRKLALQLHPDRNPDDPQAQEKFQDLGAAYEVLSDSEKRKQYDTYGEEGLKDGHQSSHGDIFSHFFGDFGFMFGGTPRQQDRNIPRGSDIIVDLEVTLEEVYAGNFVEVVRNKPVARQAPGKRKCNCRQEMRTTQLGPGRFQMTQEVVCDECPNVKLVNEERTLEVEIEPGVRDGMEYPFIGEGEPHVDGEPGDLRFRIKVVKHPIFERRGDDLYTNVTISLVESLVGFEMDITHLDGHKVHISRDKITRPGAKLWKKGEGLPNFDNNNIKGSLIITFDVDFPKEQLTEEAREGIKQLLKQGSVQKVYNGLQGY
# UniProt Q9UFN0: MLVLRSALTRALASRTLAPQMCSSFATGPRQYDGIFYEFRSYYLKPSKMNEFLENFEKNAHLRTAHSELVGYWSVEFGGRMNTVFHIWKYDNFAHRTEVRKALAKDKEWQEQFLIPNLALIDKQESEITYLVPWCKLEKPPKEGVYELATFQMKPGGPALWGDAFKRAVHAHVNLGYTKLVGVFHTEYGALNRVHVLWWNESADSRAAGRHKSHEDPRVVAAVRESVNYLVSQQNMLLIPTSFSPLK
# UniProt Q9UJX5, whole entry: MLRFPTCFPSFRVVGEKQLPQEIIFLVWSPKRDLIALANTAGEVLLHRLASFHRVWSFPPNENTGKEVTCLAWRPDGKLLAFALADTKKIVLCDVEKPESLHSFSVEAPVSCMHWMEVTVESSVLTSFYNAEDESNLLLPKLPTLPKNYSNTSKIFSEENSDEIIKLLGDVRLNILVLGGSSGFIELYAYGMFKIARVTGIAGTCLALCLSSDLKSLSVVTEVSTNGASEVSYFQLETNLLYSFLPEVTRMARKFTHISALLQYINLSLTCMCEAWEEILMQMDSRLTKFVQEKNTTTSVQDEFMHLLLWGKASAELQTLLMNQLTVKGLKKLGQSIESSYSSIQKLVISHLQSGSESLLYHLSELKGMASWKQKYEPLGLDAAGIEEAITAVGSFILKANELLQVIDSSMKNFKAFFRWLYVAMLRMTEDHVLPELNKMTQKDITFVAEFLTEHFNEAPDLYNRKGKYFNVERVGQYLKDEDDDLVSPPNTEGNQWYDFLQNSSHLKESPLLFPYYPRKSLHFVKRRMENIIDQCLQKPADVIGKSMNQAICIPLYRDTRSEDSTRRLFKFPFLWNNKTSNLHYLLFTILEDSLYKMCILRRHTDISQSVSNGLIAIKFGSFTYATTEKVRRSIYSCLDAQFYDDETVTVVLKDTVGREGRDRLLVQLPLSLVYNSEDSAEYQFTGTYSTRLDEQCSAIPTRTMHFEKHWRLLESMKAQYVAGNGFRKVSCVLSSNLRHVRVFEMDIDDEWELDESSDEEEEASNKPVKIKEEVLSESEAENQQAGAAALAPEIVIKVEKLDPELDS
# UniProt Q9NZL4: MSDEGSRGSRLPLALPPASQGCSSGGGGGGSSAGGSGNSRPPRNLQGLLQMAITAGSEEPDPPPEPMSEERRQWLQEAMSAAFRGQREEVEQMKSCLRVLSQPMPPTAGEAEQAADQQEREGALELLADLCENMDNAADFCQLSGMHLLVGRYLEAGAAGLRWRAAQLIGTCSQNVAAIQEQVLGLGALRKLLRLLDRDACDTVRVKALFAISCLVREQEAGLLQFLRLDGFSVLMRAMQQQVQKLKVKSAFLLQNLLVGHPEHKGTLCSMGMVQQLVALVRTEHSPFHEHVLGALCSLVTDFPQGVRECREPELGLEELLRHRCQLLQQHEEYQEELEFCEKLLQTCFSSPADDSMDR
# UniProt Q9UJW7: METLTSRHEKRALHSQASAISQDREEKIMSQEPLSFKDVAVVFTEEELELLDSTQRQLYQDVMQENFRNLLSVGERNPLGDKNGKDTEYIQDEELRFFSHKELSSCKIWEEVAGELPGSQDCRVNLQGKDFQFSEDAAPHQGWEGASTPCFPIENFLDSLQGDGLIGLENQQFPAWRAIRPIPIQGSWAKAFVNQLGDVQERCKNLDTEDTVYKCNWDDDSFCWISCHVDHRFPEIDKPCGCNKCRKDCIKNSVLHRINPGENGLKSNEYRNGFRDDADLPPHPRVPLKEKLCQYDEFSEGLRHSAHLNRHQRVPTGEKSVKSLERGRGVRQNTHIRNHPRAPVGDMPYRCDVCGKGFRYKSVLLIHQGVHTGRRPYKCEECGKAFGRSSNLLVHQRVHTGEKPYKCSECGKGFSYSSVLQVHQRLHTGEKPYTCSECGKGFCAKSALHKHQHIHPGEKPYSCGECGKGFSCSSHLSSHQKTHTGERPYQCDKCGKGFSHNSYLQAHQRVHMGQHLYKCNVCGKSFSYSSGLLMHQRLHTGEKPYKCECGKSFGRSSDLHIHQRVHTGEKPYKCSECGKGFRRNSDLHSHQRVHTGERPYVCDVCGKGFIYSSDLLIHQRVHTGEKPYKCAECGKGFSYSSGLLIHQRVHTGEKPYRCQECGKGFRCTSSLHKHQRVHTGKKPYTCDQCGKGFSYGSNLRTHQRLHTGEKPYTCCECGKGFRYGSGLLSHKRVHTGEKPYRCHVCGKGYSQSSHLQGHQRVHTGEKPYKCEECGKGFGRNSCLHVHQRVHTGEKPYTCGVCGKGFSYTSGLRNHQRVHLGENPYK
# Some of the results follow. Most values lie at the level of the controls, where differences are scatter.
# Compound: CN[C@@H]1C[C@H]2O[C@@](C)([C@@H]1OC)n1c3ccccc3c3c4c(c5c6ccccc6n2c5c31)C(=O)NC4 [staurosporine]
# Assay: log2 fold change of tryptic peptide abundance, ligand vs vehicle (limited proteolysis) (log2 ratio); higher = more trypsin-susceptible (destabilized)
# Conditions: ligand concentration: 20 uM; sample: K562 cleared lysate; digestion: 4 min, 22 C (HT-PELSA RT4min, Orbitrap Astral)
row,Target,log2 fold change
1,"CHPF2 (peptide sequence: AVEPGLVQK, peptide start residue: 719) (UniProt Q9P2E5)",0.287
2,"BAZ2A (peptide sequence: KGDNDEFLLLCDGCDR, peptide start residue: 1684) (UniProt Q9UIF9)",-0.787
3,"EIF2B4 (peptide sequence: GEHVALANWQNHASLR, peptide start residue: 468) (UniProt Q9UI10)",0.414
4,"BICRA (peptide sequence: RVSPSAEMVMIDR, peptide start residue: 1165) (UniProt Q9NZM4)",0.546
5,"KIAA1522 (peptide sequence: GLAVPDGPLGLPPKPERK, peptide start residue: 452) (UniProt Q9P206)",0.425
6,"GGA2 (peptide sequence: NLVKEEQEKSEK, peptide start residue: 216) (UniProt Q9UJY4)",-0.269
7,"UniProt Q9UBC1 (peptide sequence: AQEALGDREPKPTR, peptide start residue: 265)",0.464
8,"UVRAG (peptide sequence: HHTSSAIPVPK, peptide start residue: 469) (UniProt Q9P2Y5)",0.343
9,"FAM120A (peptide sequence: SPQTPELVEALAFR, peptide start residue: 652) (UniProt Q9NZB2)",0.925
10,"ZMAT5 (peptide sequence: KVWYDMFR, peptide start residue: 35) (UniProt Q9UDW3)",0.186
11,"CTSZ (peptide sequence: NVDGVNYASITR, peptide start residue: 70) (UniProt Q9UBR2)",0.36
12,"UniProt Q9NZM5 (peptide sequence: VDLILENTSKVPAPK, peptide start residue: 118)",-0.18
13,"COMMD3 (peptide sequence: NSLEILLGSIGR, peptide start residue: 109) (UniProt Q9UBI1)",-0.253
14,"VPS28 (peptide sequence: IKEDRPITIK, peptide start residue: 110) (UniProt Q9UK41)",0.378
15,"TFIP11 (peptide sequence: REAENMAQR, peptide start residue: 752) (UniProt Q9UBB9)",1.24
16,"CXXC1 (peptide sequence: RAGSGTGVGAMLAR, peptide start residue: 121) (UniProt Q9P0U4)",0.432
17,"FOXJ2 (peptide sequence: LGSASQAGPPGSSR, peptide start residue: 27) (UniProt Q9P0K8)",-0.103
18,"DNAJB11 (peptide sequence: FQMTQEVVCDECPNVK, peptide start residue: 185) (UniProt Q9UBS4)",-0.219
19,"KLHL8 (peptide sequence: AFAESHNR, peptide start residue: 174) (UniProt Q9P2G9)",0.261
20,"MRPL27 (peptide sequence: KMEGHYVHAGNIIATQR, peptide start residue: 55) (UniProt Q9P0M9)",0.313
21,"NIPSNAP3A (peptide sequence: AVHAHVNLGYTK, peptide start residue: 168) (UniProt Q9UFN0)",0.437
22,"ANAPC4 (peptide sequence: GKYFNVER, peptide start residue: 467) (UniProt Q9UJX5)",-0.621
23,"ABCF2 (peptide sequence: SKLVDEEPQLTKR, peptide start residue: 607) (UniProt Q9UG63)",0.233
24,"TSKS (peptide sequence: ALTSLVDEVK, peptide start residue: 471) (UniProt Q9UJT2)",0.424
25,"HSPBP1 (peptide sequence: GQREEVEQMK, peptide start residue: 85) (UniProt Q9NZL4)",0.803
26,"HECW2 (peptide sequence: ADDGSLTSQTK, peptide start residue: 497) (UniProt Q9P2P5)",-0.348
27,"UniProt Q9UJW7 (peptide sequence: GFRYGSGLLSHK, peptide start residue: 720)",0.0514
28,"SAE1 (peptide sequence: VSQGVEDGPDTKR, peptide start residue: 184) (UniProt Q9UBE0)",-0.0938

# Fetched one by one from above (2):
row,Target,log2 fold change
17,"FOXJ2 (peptide sequence: LGSASQAGPPGSSR, peptide start residue: 27) (UniProt Q9P0K8)",-0.103
25,"HSPBP1 (peptide sequence: GQREEVEQMK, peptide start residue: 85) (UniProt Q9NZL4)",0.803
